Common to all, as to assay: log2 fold change, soluble protein after heating vs DMSO (PISA); higher = thermal stabilisation; K562 cells, 10 uM, 30 min; active = over 0.2 and 3.5 SD of the protein, either way, in both replicates (recomputed)
Compound in experiment [1]: NC(=O)Nc1cc(-c2cccc(F)c2)sc1C(=O)N[C@H]1CCCNC1
The essentials: (§1)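 Values are thermal stability changes relative to control samples and are taken from duplicates. They are stated as log2 fold changes. Before quantification by TMTpro 16plex LC-MS/MS with equalised channel sums, K562 cells at 2×10^6 cells/mL were treated with 10 μM compound for 30 min, heated in aliquots for 3 min across 48°C-58°C, pooled, extracted in PBS with 0.5% NP-40 at 4°C, and centrifuged at 21,000xg for 90 min to give the soluble supernatant.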

Chains of the proteins cited; added tags and fusions are not shown. Lines headed by an entry give the natural chain unless they say otherwise; changes in a name come on top.
UniProt Q86UY8: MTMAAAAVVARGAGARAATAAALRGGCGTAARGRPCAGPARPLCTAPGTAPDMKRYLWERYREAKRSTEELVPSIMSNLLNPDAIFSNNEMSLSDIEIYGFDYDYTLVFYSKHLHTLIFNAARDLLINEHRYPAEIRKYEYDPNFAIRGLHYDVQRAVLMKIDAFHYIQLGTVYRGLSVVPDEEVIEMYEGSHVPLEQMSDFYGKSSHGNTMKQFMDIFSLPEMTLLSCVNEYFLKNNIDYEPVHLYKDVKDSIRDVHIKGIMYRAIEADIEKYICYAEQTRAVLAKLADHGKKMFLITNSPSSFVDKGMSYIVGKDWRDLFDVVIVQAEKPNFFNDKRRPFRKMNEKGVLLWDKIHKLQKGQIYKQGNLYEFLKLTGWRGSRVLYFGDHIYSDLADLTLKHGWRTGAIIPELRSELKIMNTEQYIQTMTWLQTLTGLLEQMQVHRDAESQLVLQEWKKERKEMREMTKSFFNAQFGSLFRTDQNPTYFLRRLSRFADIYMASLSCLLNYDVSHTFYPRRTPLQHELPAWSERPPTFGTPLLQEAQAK
UniProt O14841: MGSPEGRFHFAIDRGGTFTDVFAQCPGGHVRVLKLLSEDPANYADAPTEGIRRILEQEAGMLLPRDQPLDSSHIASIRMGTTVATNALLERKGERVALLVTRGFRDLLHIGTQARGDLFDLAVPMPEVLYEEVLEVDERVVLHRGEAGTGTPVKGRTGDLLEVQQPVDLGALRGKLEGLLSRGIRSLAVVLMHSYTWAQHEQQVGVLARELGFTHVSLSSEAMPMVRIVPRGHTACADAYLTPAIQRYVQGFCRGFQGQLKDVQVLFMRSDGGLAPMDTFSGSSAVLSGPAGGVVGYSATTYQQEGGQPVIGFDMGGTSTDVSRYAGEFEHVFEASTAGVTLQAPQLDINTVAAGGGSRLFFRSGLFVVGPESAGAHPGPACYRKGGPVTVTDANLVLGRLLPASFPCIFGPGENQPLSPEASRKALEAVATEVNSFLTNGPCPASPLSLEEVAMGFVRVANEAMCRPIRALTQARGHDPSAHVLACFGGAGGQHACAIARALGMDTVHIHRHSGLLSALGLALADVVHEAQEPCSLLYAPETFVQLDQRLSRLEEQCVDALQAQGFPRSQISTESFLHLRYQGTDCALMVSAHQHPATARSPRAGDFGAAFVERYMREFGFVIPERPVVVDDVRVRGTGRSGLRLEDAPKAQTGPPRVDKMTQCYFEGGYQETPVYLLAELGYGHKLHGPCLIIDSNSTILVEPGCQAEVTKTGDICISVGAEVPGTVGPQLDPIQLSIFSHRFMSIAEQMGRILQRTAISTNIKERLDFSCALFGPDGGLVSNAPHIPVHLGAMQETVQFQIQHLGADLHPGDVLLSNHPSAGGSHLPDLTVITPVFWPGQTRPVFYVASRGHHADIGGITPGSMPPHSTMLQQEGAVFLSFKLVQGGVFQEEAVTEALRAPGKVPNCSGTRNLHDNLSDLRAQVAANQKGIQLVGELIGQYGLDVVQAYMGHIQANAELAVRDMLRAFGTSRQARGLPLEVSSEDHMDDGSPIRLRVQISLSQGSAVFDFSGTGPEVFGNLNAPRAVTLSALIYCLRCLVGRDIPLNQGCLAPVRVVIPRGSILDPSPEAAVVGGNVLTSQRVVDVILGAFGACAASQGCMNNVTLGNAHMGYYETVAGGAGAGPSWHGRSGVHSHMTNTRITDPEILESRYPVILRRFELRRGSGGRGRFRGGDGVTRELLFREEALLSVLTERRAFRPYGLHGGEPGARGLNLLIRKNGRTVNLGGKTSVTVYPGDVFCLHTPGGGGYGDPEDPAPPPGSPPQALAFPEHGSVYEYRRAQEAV
UniProt Q8TCD5: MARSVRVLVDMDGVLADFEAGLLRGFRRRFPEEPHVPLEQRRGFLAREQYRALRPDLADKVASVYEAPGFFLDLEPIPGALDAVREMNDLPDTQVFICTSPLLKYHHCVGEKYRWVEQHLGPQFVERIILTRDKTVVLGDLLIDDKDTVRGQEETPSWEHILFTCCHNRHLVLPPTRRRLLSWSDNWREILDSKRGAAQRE
UniProt Q9BRJ7: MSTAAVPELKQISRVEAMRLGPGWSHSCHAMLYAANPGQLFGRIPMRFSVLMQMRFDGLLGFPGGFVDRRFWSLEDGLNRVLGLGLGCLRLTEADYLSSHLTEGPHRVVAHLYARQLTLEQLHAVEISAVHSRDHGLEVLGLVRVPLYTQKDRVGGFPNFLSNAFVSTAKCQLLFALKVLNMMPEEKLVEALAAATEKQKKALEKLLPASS
UniProt O15504: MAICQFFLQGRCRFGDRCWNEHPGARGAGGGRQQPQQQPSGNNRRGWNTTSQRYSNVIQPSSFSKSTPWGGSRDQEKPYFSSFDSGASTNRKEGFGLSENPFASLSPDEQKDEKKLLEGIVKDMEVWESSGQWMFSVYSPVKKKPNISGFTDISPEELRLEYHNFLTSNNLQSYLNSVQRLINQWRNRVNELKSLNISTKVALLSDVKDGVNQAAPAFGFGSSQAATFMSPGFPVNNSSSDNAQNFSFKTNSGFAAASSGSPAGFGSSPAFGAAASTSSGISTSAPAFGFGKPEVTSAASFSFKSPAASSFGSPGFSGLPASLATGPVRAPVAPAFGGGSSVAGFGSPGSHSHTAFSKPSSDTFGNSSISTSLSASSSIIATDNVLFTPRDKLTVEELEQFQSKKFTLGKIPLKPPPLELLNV
UniProt Q8WV22: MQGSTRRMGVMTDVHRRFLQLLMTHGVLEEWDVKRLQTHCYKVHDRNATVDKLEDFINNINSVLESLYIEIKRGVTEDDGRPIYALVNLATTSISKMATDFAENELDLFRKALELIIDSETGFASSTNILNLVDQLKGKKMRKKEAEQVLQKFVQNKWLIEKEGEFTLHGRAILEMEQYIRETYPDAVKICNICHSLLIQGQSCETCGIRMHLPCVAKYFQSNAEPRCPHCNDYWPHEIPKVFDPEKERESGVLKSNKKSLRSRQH
UniProt P20774: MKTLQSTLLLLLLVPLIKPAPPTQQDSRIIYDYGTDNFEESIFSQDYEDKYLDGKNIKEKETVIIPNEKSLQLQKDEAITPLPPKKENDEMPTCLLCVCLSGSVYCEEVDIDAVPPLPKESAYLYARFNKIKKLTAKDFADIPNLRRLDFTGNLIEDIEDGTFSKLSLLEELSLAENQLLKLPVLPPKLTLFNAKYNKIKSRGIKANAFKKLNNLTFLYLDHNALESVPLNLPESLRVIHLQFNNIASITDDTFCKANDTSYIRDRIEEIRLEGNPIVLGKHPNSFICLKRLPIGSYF
UniProt Q8NFH5: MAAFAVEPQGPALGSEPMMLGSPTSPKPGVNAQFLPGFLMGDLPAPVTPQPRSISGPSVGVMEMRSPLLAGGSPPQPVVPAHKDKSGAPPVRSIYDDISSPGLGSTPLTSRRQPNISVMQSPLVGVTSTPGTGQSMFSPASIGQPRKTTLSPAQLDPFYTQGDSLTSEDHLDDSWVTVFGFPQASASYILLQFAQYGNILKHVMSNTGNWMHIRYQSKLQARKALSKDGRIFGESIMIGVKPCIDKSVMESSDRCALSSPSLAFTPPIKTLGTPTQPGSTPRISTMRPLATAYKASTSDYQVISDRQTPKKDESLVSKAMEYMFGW
UniProt Q9BZF3: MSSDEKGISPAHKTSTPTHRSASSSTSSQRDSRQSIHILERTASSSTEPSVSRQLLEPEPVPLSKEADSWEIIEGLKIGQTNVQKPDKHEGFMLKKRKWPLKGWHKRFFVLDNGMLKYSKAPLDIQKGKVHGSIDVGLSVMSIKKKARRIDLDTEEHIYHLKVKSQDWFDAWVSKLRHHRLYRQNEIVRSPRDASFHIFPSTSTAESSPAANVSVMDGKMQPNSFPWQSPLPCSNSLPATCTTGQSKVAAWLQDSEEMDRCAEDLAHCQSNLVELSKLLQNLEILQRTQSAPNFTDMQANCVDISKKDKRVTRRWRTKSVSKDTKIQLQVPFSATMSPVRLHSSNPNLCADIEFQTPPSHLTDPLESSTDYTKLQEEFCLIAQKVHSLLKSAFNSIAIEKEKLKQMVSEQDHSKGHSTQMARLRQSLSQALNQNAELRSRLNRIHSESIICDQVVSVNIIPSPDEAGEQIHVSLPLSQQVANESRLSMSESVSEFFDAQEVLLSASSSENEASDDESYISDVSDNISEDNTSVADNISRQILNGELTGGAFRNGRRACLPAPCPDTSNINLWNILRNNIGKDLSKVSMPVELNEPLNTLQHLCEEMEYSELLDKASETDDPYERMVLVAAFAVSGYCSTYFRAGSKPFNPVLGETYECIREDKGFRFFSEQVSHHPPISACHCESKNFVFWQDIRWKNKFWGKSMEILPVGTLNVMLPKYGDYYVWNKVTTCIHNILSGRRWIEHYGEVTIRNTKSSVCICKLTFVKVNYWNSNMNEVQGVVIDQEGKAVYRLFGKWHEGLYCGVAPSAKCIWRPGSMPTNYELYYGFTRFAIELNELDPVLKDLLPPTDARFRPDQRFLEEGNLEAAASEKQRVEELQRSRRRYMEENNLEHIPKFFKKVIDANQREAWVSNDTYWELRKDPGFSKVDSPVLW
UniProt O60890: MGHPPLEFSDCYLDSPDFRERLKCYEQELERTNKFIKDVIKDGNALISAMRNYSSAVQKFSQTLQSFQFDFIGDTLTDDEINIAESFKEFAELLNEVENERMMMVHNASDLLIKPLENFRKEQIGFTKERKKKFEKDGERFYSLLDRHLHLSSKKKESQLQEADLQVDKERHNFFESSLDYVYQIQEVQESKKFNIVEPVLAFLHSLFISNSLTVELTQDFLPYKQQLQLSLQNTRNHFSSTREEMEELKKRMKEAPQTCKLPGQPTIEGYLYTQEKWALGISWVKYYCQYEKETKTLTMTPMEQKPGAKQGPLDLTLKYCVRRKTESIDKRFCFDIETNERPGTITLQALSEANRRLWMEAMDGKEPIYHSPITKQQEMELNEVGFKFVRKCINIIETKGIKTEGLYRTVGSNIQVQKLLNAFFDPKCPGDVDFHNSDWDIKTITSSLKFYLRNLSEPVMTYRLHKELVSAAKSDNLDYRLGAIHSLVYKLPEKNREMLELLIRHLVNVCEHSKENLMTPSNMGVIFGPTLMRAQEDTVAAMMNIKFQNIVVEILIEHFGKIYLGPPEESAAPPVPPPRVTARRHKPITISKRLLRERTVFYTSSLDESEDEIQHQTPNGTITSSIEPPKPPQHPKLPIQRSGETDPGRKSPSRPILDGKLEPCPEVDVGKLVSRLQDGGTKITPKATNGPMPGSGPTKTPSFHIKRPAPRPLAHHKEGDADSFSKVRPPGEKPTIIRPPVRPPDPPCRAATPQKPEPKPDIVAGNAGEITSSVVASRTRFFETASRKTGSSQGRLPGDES
UniProt Q9Y530: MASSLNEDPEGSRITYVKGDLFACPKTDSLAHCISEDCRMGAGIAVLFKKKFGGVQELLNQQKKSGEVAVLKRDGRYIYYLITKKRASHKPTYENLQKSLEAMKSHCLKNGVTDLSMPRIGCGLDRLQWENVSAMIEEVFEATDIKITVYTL
UniProt O15294: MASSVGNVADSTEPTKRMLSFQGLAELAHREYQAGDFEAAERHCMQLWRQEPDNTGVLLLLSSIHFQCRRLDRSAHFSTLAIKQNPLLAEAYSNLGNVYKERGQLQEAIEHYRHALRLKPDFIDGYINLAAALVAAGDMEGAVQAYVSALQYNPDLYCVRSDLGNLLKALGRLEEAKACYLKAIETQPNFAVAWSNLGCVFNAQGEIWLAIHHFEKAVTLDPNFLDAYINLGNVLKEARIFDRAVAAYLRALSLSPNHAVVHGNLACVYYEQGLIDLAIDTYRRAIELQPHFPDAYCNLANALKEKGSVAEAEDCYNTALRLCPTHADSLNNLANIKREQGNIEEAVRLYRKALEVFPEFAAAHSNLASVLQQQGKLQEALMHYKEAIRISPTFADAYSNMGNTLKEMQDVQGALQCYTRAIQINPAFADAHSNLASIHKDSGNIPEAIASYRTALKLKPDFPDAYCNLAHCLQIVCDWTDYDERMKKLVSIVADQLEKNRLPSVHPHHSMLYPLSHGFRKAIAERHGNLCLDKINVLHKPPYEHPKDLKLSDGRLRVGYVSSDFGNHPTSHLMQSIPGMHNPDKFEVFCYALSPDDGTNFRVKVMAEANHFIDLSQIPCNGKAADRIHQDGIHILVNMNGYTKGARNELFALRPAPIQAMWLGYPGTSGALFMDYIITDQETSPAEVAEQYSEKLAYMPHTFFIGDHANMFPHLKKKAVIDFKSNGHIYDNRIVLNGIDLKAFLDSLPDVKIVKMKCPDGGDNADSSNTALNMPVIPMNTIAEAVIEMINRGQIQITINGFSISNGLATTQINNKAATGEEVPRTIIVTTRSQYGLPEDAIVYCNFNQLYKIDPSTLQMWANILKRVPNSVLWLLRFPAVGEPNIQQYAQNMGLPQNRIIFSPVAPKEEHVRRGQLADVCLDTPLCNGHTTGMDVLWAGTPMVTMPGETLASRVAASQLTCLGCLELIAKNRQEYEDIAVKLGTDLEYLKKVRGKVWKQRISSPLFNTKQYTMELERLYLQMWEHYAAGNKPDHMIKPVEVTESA

Compound in experiment [2]: NC(=O)c1cnc(N[C@@H]2CCCC[C@@H]2N)nc1Nc1cccc(-n2nccn2)c1
The essentials:
as §1

Compound in experiment [3]: NCC(=O)Nc1ccc(-n2nc(C(F)(F)F)cc2-c2ccc3c(ccc4ccccc43)c2)cc1
The essentials: as §1

Compound in the next experiment: Nc1ccccc1NC(=O)c1ccc(CNC(=O)OCc2cccnc2)cc1 [entinostat]
The essentials:
as §1

Compound in a further experiment: O=C(CCCCCCC(=O)Nc1ccccc1)NO [vorinostat]
The essentials: as §1

Compound in experiment [4]: O=C1NC(=O)C(c2cnc3ccccn23)=C1c1cn2c3c(cc(F)cc13)CN(C(=O)N1CCCCC1)CC2
The essentials:
as §1

Compound in experiment [5]: NC1(c2ccc(-c3nc4ccn5c(=O)[nH]nc5c4cc3-c3ccccc3)cc2)CCC1
The essentials: as §1

Compound in a further experiment: O=C(CCCCCCNC(=O)c1cnc(N(c2ccccc2)c2ccccc2Cl)nc1)NO [citarinostat]
The essentials:
as §1

Compound in the next experiment: O=C(O)c1ccc2c(c1)nc(Nc1cccc(Cl)c1)c1ccncc12 [silmitasertib]
The essentials: as §1

Compound in experiment [6]: c1cc(OCCN2CCCCC2)cc(-c2n[nH]c3ccc(-c4nnc[nH]4)cc23)c1
The essentials:
as §1

Experimental findings from the supplement of paper PMC10849652 are described below.

The other results are listed elsewhere or left out.

For NUDT5 (UniProt C9JYY9), the log2 fold change in experiment [1] was inactive: -0.285; in [2], inactive: -0.344; in experiment [3], inactive: -0.283; with entinostat, inactive: -0.193; in the experiment with vorinostat it was inactive: -0.22; in experiment [4], inactive: -0.349.
Turning to NT5DC3 (UniProt Q86UY8), the log2 fold change in [1] was inactive: -0.028; in [2], inactive: -0.005; in experiment [5], inactive: -0.047; in experiment [3], inactive: -0.019; with entinostat it was inactive: 0.032; with vorinostat, inactive: 0.001. Moreover, the log2 fold change in the experiment with citarinostat is inactive: 0.057; with silmitasertib, inactive: 0.035; in experiment [4], inactive: -0.036; in experiment [6] it was inactive: -0.018.
Regarding OPLAH (UniProt O14841), the log2 fold change in experiment [1] was inactive: 0.012; in experiment [2] it was inactive: -0.017; in experiment [5], inactive: -0.057; in [3], inactive: -0.021; with entinostat, inactive: -0.017; with vorinostat, inactive: 0.009. Also, the log2 fold change with citarinostat is inactive: -0.015; with silmitasertib, inactive: -0.012; in experiment [4], inactive: -0.052; in experiment [6], inactive: -0.021.
Regarding NT5C (UniProt Q8TCD5), the log2 fold change was inactive: -0.005 in [1]; inactive: 0.009 in experiment [2]; inactive: 0.01 in experiment [5]; inactive: 0.011 in experiment [3]; inactive: -0.056 with entinostat; inactive: 0.008 with vorinostat. Further, the log2 fold change with citarinostat was inactive: -0.002; with silmitasertib, inactive: -0.01; in experiment [4], inactive: -0.065; in experiment [6] it was inactive: -0.03.
Consider NUDT16L1 (UniProt Q9BRJ7), for which the log2 fold change in experiment [1] is inactive: 0.004; in [2], inactive: 0.001; in experiment [5] it was inactive: -0.063; in experiment [3], inactive: -0.007; in the experiment with entinostat, inactive: -0.023; with vorinostat it was inactive: -0.01. For the same target, the log2 fold change with citarinostat is inactive: -0.015; in the experiment with silmitasertib it was inactive: 0.009; in experiment [4] it was inactive: 0.003; in experiment [6], inactive: -0.029.
Take NUP42 (UniProt O15504): the log2 fold change in experiment [1] is inactive: 0.07; in experiment [2], inactive: -0.009; in experiment [5], inactive: 0.009; in the experiment with entinostat, inactive: -0.146; with vorinostat it was inactive: -0.004; with citarinostat, inactive: -0.052. Moreover, the results for the log2 fold change (with silmitasertib; in [4]; in experiment [6]) were inactive: -0.035, inactive: 0.461 and inactive: -0.166, respectively.
With NUDT1 (UniProt P36639), the log2 fold change in experiment [1] is inactive: 0.159; in experiment [2], inactive: 0.145; in experiment [5], active: 1.01; in [3], inactive: -0.129; with entinostat, inactive: -0.026; with vorinostat, inactive: 0.033. Also, the log2 fold change was inactive: -0.073 with citarinostat, inactive: -0.091 with silmitasertib, inactive: 0.791 in experiment [4] and inactive: 0.572 in [6].
ORC4 (UniProt O43929): the log2 fold change was inactive: -0.026 in experiment [1]; inactive: -0.007 in experiment [2]; inactive: -0.15 in [5]; inactive: -0.072 in experiment [3]; inactive: 0.087 with entinostat; inactive: 0.19 in the experiment with vorinostat. For the same target, the log2 fold change with citarinostat was inactive: 0.16; in the experiment with silmitasertib, inactive: -0.046; in experiment [4], inactive: 0.028; in experiment [6] it was inactive: -0.054.
Regarding NSMCE1 (UniProt Q8WV22), the log2 fold change in experiment [1] is inactive: 0.091; in experiment [2] it was inactive: 0.214; in experiment [5], inactive: 0.058; in experiment [3], inactive: 0.022; in the experiment with entinostat it was inactive: -0.052; with citarinostat, inactive: -0.058. For the same target, the log2 fold change is inactive: -0.068 in the experiment with silmitasertib, inactive: -0.032 in experiment [4] and inactive: -0.048 in experiment [6].
In the case of OGN (UniProt P20774), the log2 fold change was inactive: -0.066 in experiment [1]; inactive: -0.151 in experiment [2]; inactive: -0.054 in experiment [5]; inactive: 0.084 in experiment [3]; inactive: -0.043 with entinostat; inactive: 0.075 with citarinostat. Besides, the log2 fold change in the experiment with silmitasertib is inactive: 0.125; in experiment [4], inactive: 0.096; in experiment [6], inactive: 0.049.
NUP35 (UniProt Q8NFH5): the log2 fold change in experiment [1] was inactive: -0.029; in experiment [2], inactive: -0.056; in [5], inactive: -0.035; in [3] it was inactive: -0.044; with entinostat, inactive: 0.048; with vorinostat, inactive: 0.056. Moreover, the log2 fold change with citarinostat is inactive: -0.034; in the experiment with silmitasertib it was inactive: 0.022; in experiment [4] it was inactive: -0.072; in experiment [6], inactive: -0.084.
As for OSBPL6 isoform 5 (UniProt Q9BZF3), the log2 fold change is inactive: 0.202 in [1]; inactive: 0.563 in experiment [2]; inactive: 0.15 in experiment [5]; inactive: -0.155 with entinostat; inactive: -0.237 with citarinostat; inactive: 0.305 with silmitasertib. Besides, the log2 fold change in experiment [4] was inactive: 0.271; in [6], inactive: -0.345.
As to NT5C3A (UniProt Q9H0P0), the log2 fold change in [1] was inactive: -0.072; in experiment [2], inactive: -0.007; in experiment [5], inactive: -0.136; in experiment [3], inactive: -0.006; in the experiment with entinostat it was inactive: -0.019; with vorinostat, inactive: 0.098. In addition, the log2 fold change is inactive: 0.08 in the experiment with citarinostat, inactive: 0.047 in the experiment with silmitasertib, inactive: 0.078 in experiment [4] and inactive: -0.085 in experiment [6].
On to OPHN1 (UniProt O60890), for which the log2 fold change in experiment [1] is inactive: 0.073; in experiment [2] it was inactive: -0.134; in experiment [5], inactive: -0.056; with entinostat, inactive: -0.084; in the experiment with vorinostat it was inactive: 0.128; with citarinostat it was inactive: 0.021. The log2 fold change with silmitasertib was inactive: 0.031; in [4], inactive: -0.046; in experiment [6], inactive: 0.094.
Turning to OARD1 (UniProt Q9Y530), the log2 fold change was inactive: -0.056 in [1]; inactive: 0.002 in experiment [2]; inactive: -0.079 in [5]; inactive: -0.054 in experiment [3]; inactive: 0.066 in the experiment with entinostat; inactive: 0.136 with citarinostat. Moreover, the log2 fold change is inactive: -0.014 with silmitasertib, inactive: -0.005 in [4] and inactive: 0.021 in experiment [6].
As to OGT (UniProt O15294), the log2 fold change in experiment [1] is inactive: -0.024; in experiment [2] it was inactive: -0.042; in experiment [5], inactive: -0.094; in experiment [3], inactive: -0.012; with entinostat it was inactive: 0.008; with vorinostat, inactive: 0.042. In addition, the log2 fold change with citarinostat is inactive: 0.064; with silmitasertib, inactive: 0.038; in experiment [4] it was inactive: -0.03; in experiment [6], inactive: -0.014.
